Reference: article PMC8017763
These are yes or no findings as the source states them, for the method shown. In cells and extracts the contact can be indirect. Some binding calls cover weakened binding; strength is not graded here.

Molecular target: T1, Beclin-1 (mouse (endogenous in peritoneal macrophages)), O88597
T1 chain: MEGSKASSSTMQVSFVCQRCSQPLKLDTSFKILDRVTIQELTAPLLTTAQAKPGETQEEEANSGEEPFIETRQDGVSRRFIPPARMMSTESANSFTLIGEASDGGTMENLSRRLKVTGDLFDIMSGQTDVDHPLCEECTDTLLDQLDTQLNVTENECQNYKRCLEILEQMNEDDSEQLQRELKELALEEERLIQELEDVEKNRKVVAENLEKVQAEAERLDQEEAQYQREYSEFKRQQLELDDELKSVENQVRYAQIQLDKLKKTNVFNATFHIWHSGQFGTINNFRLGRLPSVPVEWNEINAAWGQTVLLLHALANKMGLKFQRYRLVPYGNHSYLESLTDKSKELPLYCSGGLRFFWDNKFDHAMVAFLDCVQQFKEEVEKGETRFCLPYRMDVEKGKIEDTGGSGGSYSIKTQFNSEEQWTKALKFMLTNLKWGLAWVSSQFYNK
Experiment: co-IP; whole cell lysates of mouse peritoneal macrophages; immunoprecipitation with Beclin-1 antibody, Western blot with Bcl-2 antibody; cells with or without ABT-263 treatment; mouse serum as negative control
Conditions: remark: other sources report otherwise

- binding: binds
B1: Bcl-2, P10417 1-236 (protein)
chain: MAQAGRTGYDNREIVMKYIHYKLSQRGYEWDAGDADAAPLGAAPTPGIFSFQPESNPMPAVHRDMAARTSPLRPLVATAGPALSPVPPVVHLTLRRAGDDFSRRYRRDFAEMSSQLHLTPFTARGRFATVVEELFRDGVNWGRIVAFFEFGGVMCVESVNREMSPLVDNIALWMTEYLNRHLHTWIQDNGGWDAFVELYGPSMRPLFDFSWLSLKTLLSLALVGACITLGAYLGHK
